# Measured values from article PMC10983951.
# Target: FLAG-Myosin-A WT (complement) (Toxoplasma gondii) (UniProt O00934)
# Assay: proximity labelling; Biotinylation by Antibody Recognition (BAR): fixed, permeabilized FLAG-MyoA parasites, primary antibody and HRP-conjugated secondary antibody, biotin-phenol and hydrogen peroxide; streptavidin beads, mass spectrometry; parental strain as control
row,Binder,binding
1,"SPM2 (protein, UniProt S8GR18 1-357) MALPLDAWATAAHGSKAYVARSADVSRGACFSPAGVTRVSHQGIEPARPAGVSSRRLTQLRLAMSQQPEDRAHAPRGPTAYSCTALRDNVNEILRSATIPRDTDPVAAVLDRKRVDDYAGMRSDGINELRTPSHRWSAEVGKKRGLMTKNESVFVSDVLEHHGRPIDDSPEFQHPRVAAYLQQQCKPKCRSLQRHYGPDELHKAFYTKFEVVDKTTGRTEIMTARRPGSAAAIISLCNFDAYSTRSHKATSAQKQVSNIESTPLGLVPRKGAELPHKPSFTQTAASVCMKRSQLRCQDSWLTPSSDAPTIRHLGQSRRHVALPWLHRPTNRILQHLPQPRVQSRLVCQVDHAKKSPL",binds
2,"GAP45 (protein, UniProt Q7Z289 1-245) MGNACKKNTAKTPTRKEAEDLAEKERQEREAKEKAEAEEKARAEAEKNAADKAEAERRAAEAREREESARKEAEAEAARKAEAEAAEAERLRKEAEKKKAEEAKRKAEEEQRAAAEEAEQRAREEAERRKAEAAAAAERERQMQEALKQEEMSPREKYDKLASPEDSASETTMATQPQKVAEHSSAAVTDRSVVGYTVTPCDMAAIDETAKYLSKRCGCDLGDQHDENECPICRHIDLSDAPLLN",binds
3,"SPM1 (protein, UniProt S8F1Y1 1-351) MSGGNSNTPKKLPSEEGSDYGYPQKPQKYLPKSEQAEPDYSACCKGNDAYKGASHGTVQFSHPEEAQKYAGAAAGAETIQRGRERVAADRQPRAAGDVPARRLHLSDVDEAHRGQSPSRHPGYCVEELCTCGMHKCIPSRAPVPFTGSTQYRQEFVPKPLPPPTQVSQVTLPPSLPFEAESSYRTEFVAKPLPPPAKFSEVKLPPTLPFHGESAYRTDYVPKPLPEVAKPVEVKLPPTLPFNAQSCYRSEYVAKPLPPPVQTVEVKLPPSLPFEGSTHYRDEFQVKPLPPATKVTEVKLPPSLPFDATSMYRSDYVAKSNPICPVSKLPQYPAATYPQNHVFWDPDTKQWY",binds

# These are yes or no findings as the source states them, for the method shown. Binding seen in cells or lysates may run through a third protein. Here binding means that the protein was enriched with, or labelled near, the bait; the list need not be complete.
